# Measurements reported in PubChem BioAssay AID651640 (Broad Institute, 2012).
# Where “and” joins values, the source holds several entries; their conditions need not be identical. Equal values may be shown once. Out of some 350,000 compounds screened, about 6,000 (1.7%) were called active. Inconclusive results, whose numbers are uncertain, are shown with a selection of clear calls. No stated cut-off is given here; in the data, active means CPE inhibition above about 20% (passing the limit was not always enough); inconclusive means no clear call, values can overlap the other calls; tested in BHK-21 cells.
# Test: protection of cells from dengue 2 killing – plate reader, single concentration, primary screen (AID 651640);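 further: 0% = median of neutral control wells and 100% = median of positive control wells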
# Details: DENV2-infected cells, cytopathic effect rescue, at 9.99 µM, stronger effect = higher value
row,Structure (SMILES),CPE inhibition
1,COC(C[C@H](O)C[C@H](O)[C@@H](C)OCc1ccccc1)OC,inconclusive: 30.4%
2,C[C@@H]1CN([C@H](C)CO)C(=O)Cc2cc(NS(=O)(=O)c3ccccc3)ccc2O[C@@H]1CN(C)S(=O)(=O)c1ccc(Cl)cc1,inactive: -6.62%
3,Cc1ccc2ccccc2c1C(O)c1ncc(-c2ccc(Cl)cc2)[nH]1 (stereo unspecified),inconclusive: 40.6%
4,CCCNC(=O)NC[C@H]1[C@@H](c2ccc(C3=CCCC3)cc2)[C@H](CO)N1C(C)=O,inconclusive: 17%
5,CCN(CC(=O)NCc1cccs1)CC(=O)Nc1cccc(S(N)(=O)=O)c1,inactive: -0.663%
6,CC(C)C#Cc1ccc2c(c1)O[C@H](CN(C)Cc1cccnc1)[C@@H](C)CN([C@@H](C)CO)S2(=O)=O,inconclusive: 25.7%
7,CCOC(=O)N1CCN(C(=S)Nc2ccc3nc(N4CCN(CC)CC4)cc(C)c3c2)CC1,inactive: -3.01%
8,C[C@H](CO)N1C[C@H](C)[C@H](CN(C)S(=O)(=O)c2ccc3c(c2)OCCCO3)OCc2cnnn2CCCC1=O,inconclusive: 32.4%
9,CC(C)C(=O)Nc1ccc2c(c1)C(=O)N(C)[C@H]1CC[C@H](CC(=O)Nc3ccccc3F)O[C@@H]1CO2,active: 77.9%
10,Cn1c(SCC(=O)NNC(=O)c2ccc(Br)cc2)nnc1-c1cccnc1,inactive: -5.14%
11,CC(=O)N(C)C[C@H]1Oc2ncc(Br)cc2C(=O)N([C@H](C)CO)C[C@@H]1C,inactive: -9.35% and inconclusive: 30.3%
12,Cc1ccccc1-n1c(=S)[nH]c2nc3c(cc2c1=O)COC(C)(C)C3,inactive: -5.99%
13,CC(C)NC(=O)N1[C@H](CO)[C@@H](c2ccccc2)[C@@H]1CN(C)C(=O)c1ccccc1,inconclusive: 41.9%
14,COc1ccc(S(=O)(=O)N2CCC(C(=O)NN3CCCCC3)CC2)cc1,inconclusive: 39.6%
15,C[C@@H]1CN([C@@H](C)CO)C(=O)c2cc(NC(=O)C3CC3)ccc2O[C@@H]1CN(C)C(=O)Nc1cccc2ccccc12,inactive: -3.39%
16,O=C(N/N=C/c1ccc([N+](=O)[O-])o1)c1sc2ccccc2c1Cl,inactive: 6.75%
17,CCN(CC(=O)Nc1c(F)cccc1F)C(=O)C1CC(=O)N(CCc2ccc(OC)c(OC)c2)C1 (stereo unspecified),inconclusive: 65.5%
18,C[C@@H]1CN([C@H](C)CO)C(=O)c2cc(C#Cc3ccc(F)cc3)cnc2O[C@@H]1CN(C)C,active: 81.1%

# A stretch taken from the entries so far, for reference:
row,Structure (SMILES),CPE inhibition
7,CCOC(=O)N1CCN(C(=S)Nc2ccc3nc(N4CCN(CC)CC4)cc(C)c3c2)CC1,inactive: -3.01%
8,C[C@H](CO)N1C[C@H](C)[C@H](CN(C)S(=O)(=O)c2ccc3c(c2)OCCCO3)OCc2cnnn2CCCC1=O,inconclusive: 32.4%

# Carrying on:

row,Structure (SMILES),CPE inhibition
1,O=C(O)/C(=C\c1ccco1)NC(=O)c1cccc2ccccc12,inconclusive: 22.9%
2,CC[C@]12c3[nH]c4cc(CCC(=O)N(C)C)ccc4c3CCN1C(=O)[C@@H](CC(=O)NCc1ccco1)C[C@@H]2C(=O)N1CCN(C(=O)C2CC2)CC1,active: 25.1%
3,Cc1noc(C)c1S(=O)(=O)Nc1ccc2c(c1)C(=O)N([C@@H](C)CO)C[C@H](C)[C@@H](CN(C)Cc1ccc(C(=O)O)cc1)OCCCC[C@H](C)O2,active: 34.3%
4,CCOC(=O)C1(CC2CCCCO2)CCN(S(=O)(=O)c2c(C)nn(C)c2C)CC1 (stereo unspecified),inconclusive: 36%
5,CC(C)CC#Cc1ccc([C@@H]2[C@H](CO)N3C(=O)CN(C(=O)Nc4ccc(F)cc4)C[C@@H]23)cc1,inconclusive: 23.6%
6,COc1cccc(-c2ccc([C@H]3[C@@H](CO)N4CCCCN(C(=O)c5ccc(F)cc5)C[C@H]34)cc2)c1,active: 43.1%
7,C[C@H]1CN([C@@H](C)CO)C(=O)c2cccc(NC(=O)Nc3ccc(F)cc3)c2O[C@@H]1CN(C)C(=O)Nc1ccc2c(c1)OCO2,inactive: -3.44%
8,CC(C)C#Cc1cnc2c(c1)C(=O)N([C@H](C)CO)C[C@H](C)[C@@H](CN(C)C(=O)c1ccc3c(c1)OCO3)O2,inactive: 1.3%
9,CC(OC(=O)Cc1c[nH]c2ccccc12)C(=O)Nc1ccccc1F (stereo unspecified),inconclusive: 39.7%
10,C[C@H](CO)N1C[C@H](C)[C@@H](CN(C)C(=O)Nc2ccc(C(F)(F)F)cc2)Oc2ccc(NS(=O)(=O)c3ccc(F)cc3)cc2C1=O,inconclusive: 35.9%
11,N#C[C@@H]1[C@@H](c2ccccc2-c2ccccc2)[C@H](CO)N1C(=O)Cc1ccncc1,inconclusive: 24%
12,COC(=O)C1=C(C(=O)OC)[C@@H]2N(C)c3ccc(OC)cc3[C@@]23C[C@@H](C(=O)OC)N(C(=O)COCc2ccccc2)C3=N1,inconclusive: 22.4%
13,C[C@H](CO)N1C[C@H](C)[C@@H](CN(C)Cc2ccccc2)Oc2cc(Br)ccc2S1(=O)=O,inconclusive: 21.1%
14,Cc1ccc2ccc(C(Nc3ccccc3)c3ccccc3)c(O)c2n1 (stereo unspecified),active: 35.4%
15,Cc1ccc(NS(=O)(=O)c2cc(-c3cc(C)no3)ccc2C(C)C)nc1,inconclusive: 54.1%
16,COc1ccc(C(C)=O)cc1CC1(C)C(=O)Nc2ccc(OC(F)(F)F)cc21 (stereo unspecified),inconclusive: 38.8%
17,CCN(CC)CCN(C(=O)c1ccc(C(=O)c2ccccc2)cc1)c1nc2ccc(OC)cc2s1,inactive: 3.04%
18,COc1ccc2c3c([nH]c2c1)[C@@H](CO)N(C(C)=O)CC31CN(C(=O)c2ccc3c(c2)OCO3)C1,inactive: -2.46%
